# In publication PMC4395367:
# Chains of the proteins cited; added tags and fusions are not shown.
# UniProt O96017: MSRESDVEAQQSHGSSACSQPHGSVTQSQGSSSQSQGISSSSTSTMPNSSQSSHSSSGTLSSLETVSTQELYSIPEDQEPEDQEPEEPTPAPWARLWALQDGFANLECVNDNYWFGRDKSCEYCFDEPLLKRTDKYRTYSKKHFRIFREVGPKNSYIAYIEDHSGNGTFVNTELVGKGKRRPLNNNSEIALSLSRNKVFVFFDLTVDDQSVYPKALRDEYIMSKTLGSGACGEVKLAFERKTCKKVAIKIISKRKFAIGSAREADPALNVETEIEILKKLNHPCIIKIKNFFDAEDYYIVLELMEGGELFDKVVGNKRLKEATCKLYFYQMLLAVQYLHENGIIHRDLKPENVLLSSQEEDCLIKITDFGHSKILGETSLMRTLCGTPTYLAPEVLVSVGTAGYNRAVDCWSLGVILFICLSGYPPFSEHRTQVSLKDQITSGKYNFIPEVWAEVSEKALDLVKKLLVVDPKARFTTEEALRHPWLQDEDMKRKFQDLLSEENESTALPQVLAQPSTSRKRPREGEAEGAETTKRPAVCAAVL
# No constants are given. Whether binding was seen depends on the method and setting. In cells and extracts the contact can be indirect. Some results given as binding are weak or reduced against the parent protein; the word gives no strength.
# What was measured:
# [1] = biological target: T1, phosphorylated SMC1 (S957) (human (endogenous in CIN 612 and HFK)) (UniProt Q14683); test: proximity ligation; on-slide co-immunoprecipitation (OLINK DuoLink) in HPV 31 positive CIN 612 cells in monolayer culture, fixed with 4% methanol-free formaldehyde, permeabilized with 0.1% Triton X-100; red nuclear foci indicate complex formation
# T1 sequence (chain, phosphoserine at 957): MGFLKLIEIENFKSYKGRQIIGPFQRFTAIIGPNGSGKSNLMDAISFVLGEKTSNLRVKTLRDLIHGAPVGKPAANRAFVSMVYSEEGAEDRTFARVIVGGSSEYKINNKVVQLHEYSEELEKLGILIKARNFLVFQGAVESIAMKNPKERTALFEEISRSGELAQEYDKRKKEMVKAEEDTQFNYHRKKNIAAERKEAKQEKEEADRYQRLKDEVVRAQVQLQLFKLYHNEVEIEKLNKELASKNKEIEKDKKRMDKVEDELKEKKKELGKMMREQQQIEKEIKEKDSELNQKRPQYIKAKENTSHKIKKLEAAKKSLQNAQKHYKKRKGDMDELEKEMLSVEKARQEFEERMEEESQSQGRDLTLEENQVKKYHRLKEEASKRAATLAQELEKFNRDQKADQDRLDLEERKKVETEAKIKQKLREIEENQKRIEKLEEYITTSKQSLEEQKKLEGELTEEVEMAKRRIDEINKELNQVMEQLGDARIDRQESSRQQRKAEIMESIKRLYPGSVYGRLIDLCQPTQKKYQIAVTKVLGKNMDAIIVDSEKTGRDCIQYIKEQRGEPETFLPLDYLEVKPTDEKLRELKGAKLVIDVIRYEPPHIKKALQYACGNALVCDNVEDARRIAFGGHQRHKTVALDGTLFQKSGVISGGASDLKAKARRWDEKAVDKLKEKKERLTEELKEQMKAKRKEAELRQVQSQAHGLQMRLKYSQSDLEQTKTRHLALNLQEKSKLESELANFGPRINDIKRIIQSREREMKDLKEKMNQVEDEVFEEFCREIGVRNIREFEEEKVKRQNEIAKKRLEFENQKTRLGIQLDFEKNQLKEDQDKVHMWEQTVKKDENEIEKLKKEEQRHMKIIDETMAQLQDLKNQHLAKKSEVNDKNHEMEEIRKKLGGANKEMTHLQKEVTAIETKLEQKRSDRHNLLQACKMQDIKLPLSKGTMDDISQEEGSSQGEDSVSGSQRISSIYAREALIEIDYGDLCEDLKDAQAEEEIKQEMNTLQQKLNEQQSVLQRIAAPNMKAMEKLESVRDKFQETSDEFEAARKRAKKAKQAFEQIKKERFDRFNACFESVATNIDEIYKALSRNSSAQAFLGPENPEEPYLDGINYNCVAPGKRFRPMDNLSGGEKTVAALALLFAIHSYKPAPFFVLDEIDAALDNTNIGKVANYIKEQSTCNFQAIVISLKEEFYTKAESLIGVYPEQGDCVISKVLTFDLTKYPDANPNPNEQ
# [2] = biological target: T1, phosphorylated SMC1 (S957) (human (endogenous in CIN 612 and HFK)); test: condition: only in normal keratinocytes (HFK) without HPV; proximity ligation; on-slide co-immunoprecipitation (OLINK DuoLink) in normal human foreskin keratinocytes (HFK, HPV negative), same antibodies, fixed with 4% methanol-free formaldehyde, permeabilized with 0.1% Triton X-100
substance,measurement,setting,value
phosphorylated CHK2 (Thr-68) (from UniProt O96017 1-543),binding,[1],binds
same,binding,[2],no binding
